The source of these data is PMC3972672.

The target of this test is T1, CD95 (Fas/APO-1) (human (endogenous in SKW6.4)), P25445.
T1 chain: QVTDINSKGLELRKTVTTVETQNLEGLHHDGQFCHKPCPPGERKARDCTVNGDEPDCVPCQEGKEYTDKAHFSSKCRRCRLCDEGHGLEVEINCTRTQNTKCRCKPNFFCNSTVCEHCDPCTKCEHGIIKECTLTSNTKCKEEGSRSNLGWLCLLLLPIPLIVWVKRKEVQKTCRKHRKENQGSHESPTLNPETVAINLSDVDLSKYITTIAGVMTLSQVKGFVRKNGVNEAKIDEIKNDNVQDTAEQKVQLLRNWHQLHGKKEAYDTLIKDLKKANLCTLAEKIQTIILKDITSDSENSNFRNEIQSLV
The test can be described thus: co-IP; anti-CD95 antibody (10 ug) and Protein-A-Sepharose beads; 5 x 10^7 SKW6.4 cells stimulated with 1 ug/mL LZ-CD95L for 15 min, lysed under mild conditions; Western blot. The conditions noted are these: remark: other sources report otherwise.

No constants are given. Whether binding was seen depends on the method and setting. Binding seen in cells or lysates may run through a third protein. Some results given as binding are weak or reduced against the parent protein; the word gives no strength.

B1: procaspase-8, Q14790 1-479 (enzyme)
chain: MDFSRNLYDIGEQLDSEDLASLKFLSLDYIPQRKQEPIKDALMLFQRLQEKRMLEESNLSFLKELLFRINRLDLLITYLNTRKEEMERELQTPGRAQISAYRVMLYQISEEVSRSELRSFKFLLQEEISKCKLDDDMNLLDIFIEMEKRVILGEGKLDILKRVCAQINKSLLKIINDYEEFSKERSSSLEGSPDEFSNGEELCGVMTISDSPREQDSESQTLDKVYQMKSKPRGYCLIINNHNFAKAREKVPKLHSIRDRNGTHLDAGALTTTFEELHFEIKPHDDCTVEQIYEILKIYQLMDHSNMDCFICCILSHGDKGIIYGTDGQEAPIYELTSQFTGLKCPSLAGKPKVFFIQACQGDNYQKGIPVETDSEEQPYLEMDLSSPQTRYIPDEADFLLGMATVNNCVSYRNPAEGTWYIQSLCQSLRERCPRGDDILTILTEVNYEVSNKDDKKNMGKQMPQPTFTLRKKLVFPSD
On to B1, for which the binding entry is “binds”.

B2: FADD, Q13158 1-208 (natural protein)
chain: MDPFLVLLHSVSSSLSSSELTELKFLCLGRVGKRKLERVQSGLDLFSMLLEQNDLEPGHTELLRELLASLRRHDLLRRVDDFEAGAAAGAAPGEEDLCAAFNVICDNVGKDWRRLARQLKVSDTKIDSIEDRYPRNLTERVRESLRIWKNTEKENATVAHLVGALRSCQMNLVADLVQEVQQARDLQNRSGAMSPMSWNSDASTSEAS
Take B2: the binding entry is on record as “binds”.
